Data as given in PubChem BioAssay AID1159578 (Peter MacCallum Cancer Centre, 2015).

- Aim: 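Genome-wide hunt for genes controlling movement of lymphatic endothelial cells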 (primary screen)
- Cell system: human lymphatic endothelial cells
- Knock-down reagent: siRNA pool against human genes, 40 nM
- Duration: 48 h after transfection
- Measurement: 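Cells stained with dye and imaged after a scratch; covered wound area and nuclei counted, duplicates averaged, migration set against mock wells and turned into a robust z-score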
- Scale: migration robust z-score: higher = faster migration into the scratch; migration relative to mock: higher = more scratch area covered than mock; nuclei per well: higher = more cells in the well
- Hit rule: 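Migration changed when robust z exceeds 2 or falls below -2 and mean nuclei number is at least 3300; otherwise not called changed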
- Calls: active = migration changed; inactive = no migration change, or too few cells
This is a random part of about 18,000 deposited reagents. Over the whole deposit, about 1,030 (5.7%) got an active call. 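Inactive calls also include pools with fewer than 3300 nuclei, whose migration was not assessed.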 Raw values are not corrected between plates. A number with no mark means an inactive call.

Gene	migration robust z-score	migration class with cell-count check	migration relative to mock	nuclei per well, duplicate mean
TIE1	-0.05	migration z between -2 and 2; enough cells	0.8	4690
MTCL3 (MTCL family member 3)	-0.05	migration z between -2 and 2; enough cells	0.87	5534
AMY1C (amylase alpha 1C)	0.38	migration z between -2 and 2; enough cells	0.99	5012
PUS7L (pseudouridine synthase 7 like)	1.74	migration z between -2 and 2; enough cells	1.33	5066
LENG8 (leukocyte receptor cluster member 8)	0.02	migration z between -2 and 2; enough cells	0.89	5816
ELMOD3 (ELMO domain containing 3)	-0.42	migration z between -2 and 2; enough cells	0.72	5192
PDZD11 (PDZ domain containing 11)	0.37	migration z between -2 and 2; enough cells	0.98	4567
UTP14C (UTP14C small subunit processome component)	-0.5	migration z between -2 and 2; enough cells	0.75	5634
RBMS2 (RNA binding motif single stranded interacting protein 2)	-0.6	migration z between -2 and 2; enough cells	0.74	5347
CRB1 (crumbs cell polarity complex component 1)	0.66	migration z between -2 and 2; enough cells	1.06	6246
DNAAF19 (dynein axonemal assembly factor 19)	2.64 (active)	migration z above 2; enough cells	1.57	4841
CDC23 (cell division cycle 23)	0.28	migration z between -2 and 2; enough cells	0.96	5662
C1orf21 (chromosome 1 open reading frame 21)	-0.52	migration z between -2 and 2; enough cells	0.76	4822
CNPY4 (canopy FGF signaling regulator 4)	2.31 (active)	migration z above 2; enough cells	1.49	6264
NEMF (nuclear export mediator factor)	-0.5	migration z between -2 and 2; enough cells	0.75	4460
CRMP1 (collapsin response mediator protein 1)	1.35	migration z between -2 and 2; enough cells	1.06	6390
TRAF6 (TNF receptor associated factor 6)	0.18	migration z between -2 and 2; enough cells	0.84	6100
LEPROTL1 (leptin receptor overlapping transcript like 1)	-1.67	migration z between -2 and 2; enough cells	0.45	5528
PUDP (pseudouridine 5'-phosphatase)	1.56	migration z between -2 and 2; enough cells	1.1	5666
SYNGR1 (synaptogyrin 1)	-0.24	migration z between -2 and 2; enough cells	0.82	4998
MS4A2 (membrane spanning 4-domains A2)	0	migration z between -2 and 2; enough cells	0.8	5128
ALDH6A1 (aldehyde dehydrogenase 6 family member A1)	0.72	migration z between -2 and 2; enough cells	0.94	6930
EPGN (epithelial mitogen)	0.02	migration z between -2 and 2; enough cells	0.88	6452
ZFP36L1 (ZFP36 like 1 zinc finger CCCH-type)	-0.68	migration z between -2 and 2; enough cells	0.68	5295
COXFA4L2 (cytochrome c oxidase hypoxia associated subunit FA4L2)	-0.26	migration z between -2 and 2; enough cells	0.76	6366
CRADD (CARD and death domain containing adaptor protein)	0.24	migration z between -2 and 2; enough cells	0.94	5242
NPTN (neuroplastin)	0.86	migration z between -2 and 2; enough cells	0.97	5753
LRRFIP1 (LRR binding FLII interacting protein 1)	0.04	migration z between -2 and 2; enough cells	0.9	6110
MYB (MYB proto-oncogene, transcription factor)	0.73	migration z between -2 and 2; enough cells	0.94	6215
EAF2 (ELL associated factor 2)	0.6	migration z between -2 and 2; enough cells	0.92	6428
OR2B6 (olfactory receptor family 2 subfamily B member 6)	-0.05	migration z between -2 and 2; enough cells	0.88	5226
CHMP2A (charged multivesicular body protein 2A)	-3.56	under 3300 nuclei; migration not judged	-0.04	2770
CDCP2 (CUB domain containing protein 2)	0.26	migration z between -2 and 2; enough cells	0.96	4839
RNASEL (ribonuclease L)	-1.25	migration z between -2 and 2; enough cells	0.56	3936
SNAPC5 (small nuclear RNA activating complex polypeptide 5)	0.06	migration z between -2 and 2; enough cells	0.9	4132
DUSP26 (dual specificity phosphatase 26)	-1.38	migration z between -2 and 2; enough cells	0.52	3998
ZMAT5 (zinc finger matrin-type 5)	-0.05	migration z between -2 and 2; enough cells	0.87	5707
PUM2 (pumilio RNA binding family member 2)	1.52	migration z between -2 and 2; enough cells	1.27	6640
POU2F2 (POU class 2 homeobox 2)	0.49	migration z between -2 and 2; enough cells	0.9	5510

Taken from above:
Value of DUSP26 (dual specificity phosphatase 26) in “migration relative to mock”: 0.52
Result for COXFA4L2 (cytochrome c oxidase hypoxia associated subunit FA4L2) under “nuclei per well, duplicate mean”: 6366
